Measurements reported in PubChem BioAssay AID2685 (National Center for Advancing Translational Sciences (NCATS), 2010).
The whole screen tested about 320,000 compounds, of which about 2,100 (0.66%) were called active. Inconclusive means that the source gave no clear call. Such entries were picked first, then a sample of the others. Calls come from the whole dose curve; as a rule, active = well fitted inhibition curve with a large enough effect in the signal ratio, with a control signal flat (not every such curve was filed as active); inconclusive = small, poorly fitted or top-dose-only effect, or effect the other way, or a change in a side signal; inactive = flat fitted curve, though single readings scatter; the % refers to the signal ratio. Where the call is inconclusive, the potency comes from a doubtful curve fit.

Assay: qHTS Assay for Lipid Storage Modulators in Drosophila S3 Cells
Conditions: BODIPY lipid droplet fluorescence, 18-24 h, cells fed with added oleic acid; lipid storage change, negative = inhibition: at 46.1 µM (top of the series) unless noted
In short: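 Drosophila S3 cells got compounds at several concentrations plus oleic acid (400 uM solution). Laser-scanning cytometry with 488 nm excitation read lipid droplets at 500-530 nm and cells at 575-640 nm. Percent activity was relative to 20 uM Triacsin C.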
% is set by controls: 0 for no effect and ±100 for the full control effect; potency is the fitted concentration of half-maximal effect.

Potency, active:
COc1ccc(Cc2nc3ccccc3[nH]c2=O)cc1 3.26 µM, O=C(O)CCC(=O)Nc1nnc(C(F)(F)F)s1 29.1 µM

Potency, inconclusive:
Cc1cc(C)c(C#N)c(N2CCN(Cc3ccccc3)CC2)n1 1.03 µM [activator, full curve], CCNc1c(NC(=O)C2CCC(C)CC2)c(=O)oc2ccccc12 (configuration not stated) 6.51 µM [falling, single point], Cc1ccc(C)c(-n2c(SCC(N)=O)nnc2-c2ccccn2)c1 0.82 µM [falling, full curve], CCCCOC(=O)Nc1ccc(OC)cc1S(=O)(=O)N1CCOCC1 0.731 µM [activator, full curve], C=CCn1c(-c2sccc2C)n[nH]c1=S 20.6 µM [activator, partial curve], COc1ccc(-n2cnnc2SCC(=O)NC2CCS(=O)(=O)C2)cc1 (configuration not stated) 0.461 µM [falling, full curve, poor fit], CC(C)(C)N1C(=O)c2ccc(C(=O)Nc3ccc(-c4nc5ccccc5[nH]4)cc3)cc2C1=O 5.17 µM [falling, partial curve, poor fit], CCCCCCCCCCCCC(NC(C)=O)(C(=O)OCC)C(=O)OCC 0.0411 µM [falling, full curve, poor fit], CCOc1ccc2[nH]c(=O)c(CN(Cc3ccco3)C(CC)c3nnnn3Cc3ccccc3)cc2c1 (configuration not stated) 0.517 µM [activator, single point], CCOC(=O)C(Cc1ccc(N)cc1)N1C(=O)c2ccccc2C1=O (configuration not stated) 9.2 µM [falling, partial curve, poor fit], CC12CN(NC(=O)c3ccccc3F)C3(C#N)CC1CCC23C (configuration not stated) 25.9 µM [falling, partial curve, poor fit], CN1C(=O)c2ccc(C(=O)Nc3ccccc3O)cc2C1=O 9.2 µM [activator, partial curve, poor fit], Cc1ccc(S(=O)(=O)N2CCC(=O)N(C(COCc3cccc(C)c3)C(C)C)CC2)cc1 (configuration not stated) 6.51 µM [activator, partial curve], COc1ccc(CCNC(=O)C(=O)NCc2ccccc2C)cc1OC 29.1 µM [activator, single point], CCOC(=O)N1CCN(S(=O)(=O)c2cc(Br)cc3c2N(C(=O)CC)CC3)CC1 32.6 µM [falling, single point], Cn1cccc1C(=O)OCc1cc(-c2ccco2)on1 18.4 µM [activator, single point], CCN(CC(=O)NCc1cccs1)S(=O)(=O)c1ccccc1Cl 2.91 µM [activator, partial curve, poor fit], CC1(C)CC(=O)C(CC2=C(O)CC(C)(C)CC2=O)=C(O)C1 32.6 µM [falling, single point], Cc1cc(S(=O)(=O)N2CCCCC2)ccc1OCC(=O)N1CCOCC1 29.1 µM [falling, single point], CC(OC(=O)CCc1nc2ccccc2c(=O)[nH]1)C(=O)Nc1ncc(Cl)cc1Cl (configuration not stated) 4.11 µM [falling, single point], Cc1cc(C)cc(C(=O)NC(CC(N)=O)c2ccc(NC3CCCCCCC3)c([N+](=O)[O-])c2)c1 (configuration not stated) 0.0046 µM [activator, full curve, poor fit], Cc1cccc(N2CCN(S(=O)(=O)c3ccc4c(c3)CCN4C(=O)CCC(=O)O)CC2C)c1 (configuration not stated) 0.146 µM [falling, full curve, poor fit], O=[N+]([O-])c1cccc(P(=O)(O)c2cccc([N+](=O)[O-])c2)c1 0.82 µM [falling, full curve, poor fit], Cc1csc(SC(C)C(=O)NCC2CCCO2)n1 (configuration not stated) 20.6 µM [activator, single point], Cc1cc(=O)n2nc(N3CCCC(C(=O)Nc4ccc(C)c(C)c4)C3)sc2n1 (configuration not stated) 5.8 µM [falling, single point], O=C(Nc1cccn2ncnc12)c1ccccc1 6.51 µM [rising, single point]

Lipid storage change, negative = inhibition, inconclusive:
CC1=C(NCCc2ccccc2)CCC1=O 10.4%, Cc1c(C(=O)OCC(=O)N2CCCC2=O)oc2ccccc12, Cc1oc2c(cc(NS(=O)(=O)c3ccc(Cl)cc3)c3ccccc32)c1C(=O)O 326%, CN(C)c1ncc(/C=C2/C(=O)NC(=S)N(C3CCCCC3)C2=O)cn1 -31.4%, CCn1cc(C(=O)NCCCN(C)C)c(=O)c2cc(F)c(N3CCN(C)CC3)cc21 -13.5%, Cc1ccc(NC(=O)COC(=O)C2CC2C)c(S(=O)(=O)N2CCCCC2)c1 (configuration not stated) 15%, COc1ccc(C(=O)NC(CCSC)C(=O)NCc2nnc3ccccn23)cc1 (configuration not stated), N#Cc1c(N)c(C#N)c(-c2ccc3c(c2)OCO3)c2c1CCCC2 -15.4%, CCOC(=O)Cn1c2c(c(-c3ccccc3OC)cc1=O)CCCC2 6.73%, COc1ccc(C(=O)N2CCCC(O)C2)cc1OC1CCN(C(C)C)CC1 (configuration not stated) 58.3%, CC(C)c1nc(C#N)c(N2CCOCC2)o1 -4.84%, Cc1noc(NS(=O)(=O)c2ccc(N3C(=O)c4ccccc4C3=O)cc2)c1C -30.9%, CCN(CC)S(=O)(=O)c1ccc(C)c(NC(=S)N2CCN(c3ccccn3)CC2)c1 71.1%, COc1ccc(Cl)cc1N(CC(=O)N/N=C/c1ccc(OC(C)C)cc1)S(=O)(=O)c1ccc(C)c([N+](=O)[O-])c1 20.8%, COc1ccc(CCCc2nnc(SCC(=O)Nc3ncc(C)s3)o2)cc1 -1.29%, CCCCC1NC(=S)N(C2CCCCC2)C1=O (configuration not stated) -33.7%, CNc1c(NS(=O)(=O)c2ccc(Br)cc2)c(=O)oc2ccccc12 21.6%, CC(C)CCn1c(=O)c2ccccc2n2c(CN3CCCC3)nnc12 46.7%, COCCCNC(=O)Cn1ncc2ccsc2c1=O 73.7%, CSc1ncccc1C(=O)OCC(=O)NC1CCCCC1 2.3%, Nc1cc(C(F)(F)F)cc2c1SCC(=O)N2 10.8%, COc1cccc(/C=C2\SC(=S)N(CCC(=O)NC3C=CS(=O)(=O)C3)C2=O)c1 (configuration not stated) -49%, COc1ccc(C2(CNC(C)=O)CCCC2)cc1OC 0.712%, CC(C)COC(=O)n1c(SCC(N)=O)nc2ccccc21 4.04%, CCOC(=O)Cc1nc(-c2cccc(C(F)(F)F)c2)no1 8.17%, Cc1ccccc1NC(=O)C1CCN(c2cc(-c3ccccc3)nc3ncnn23)CC1 -15.2%, COc1ccccc1NS(=O)(=O)c1cc(NC(=O)CCC(=O)c2cccs2)ccc1Cl -7.79%, COc1ccccc1/C=C1\CCCC2=C1Nc1nnnn1C2c1ccccc1OC (configuration not stated) -64.9%, CCOC(=O)c1c(NC(=O)OC)sc(C(=O)N(C)C)c1C 7.43%, COc1ccccc1N1CCN(S(=O)(=O)c2cc(Br)cnc2N)CC1 4.11%, CS(=O)(=O)c1cnc(-c2ccccc2)nc1-c1ccccc1Cl 24%, O=C(COC(=O)c1cccnc1Cl)NCCc1ccccc1 -60.7%, COC(=O)c1ccc(OC(=O)c2cccnc2)cc1 5.19%, CCOC(=O)C1=C(C)NC(=O)NC1c1ccccc1 (configuration not stated) -12.3%, O=C1c2ccccc2C(=O)c2c1cccc2N1CCOCC1 14.8%, CC1(C)CC(=O)C(/C=N/c2ncccc2C(=O)O)=C(O)C1 -3.42%, Cc1ccc(-n2ncc3c(=O)n(CC(=O)NCC4CCCO4)cnc32)cc1 (configuration not stated) 24%, O=C(O)CSc1nnc(COc2cccc3cccnc23)n1-c1ccc(Cl)cc1 17.2%, CCCCNS(=O)(=O)c1ccc(NC(=O)c2cccs2)cc1 -57.5% [at 0.00295 µM], NC(=O)c1ccc(N2CCN(c3ccc(O)cc3)CC2)c([N+](=O)[O-])c1 -28.2%, O=S1(=O)c2cccc3cccc(c23)N1CCBr 9.49%, Fc1cccc(-c2c(-c3ccccc3)ncc3cc(F)ccc23)c1 -9.58%, Cc1c(-c2cccc(Cl)c2)nc2ccccc2c1C(=O)OCC(=O)Nc1ccc2c(c1)OCO2 -60.7%, O=C(NCCCN1CCCC1=O)c1cc(S(=O)(=O)N2CCOCC2)c(Cl)cc1Cl

Lipid storage change, negative = inhibition, inactive:
CC(=O)/C(=N/Nc1ccc(Br)cc1)Sc1cccc2cccnc12 -13%, Cc1nc(NS(=O)(=O)c2ccccc2)sc1NC(=O)Nc1ccc(Cl)cc1 7.91%

outcome, inactive:
Cc1ccc(NS(=O)(=O)c2ccc3c(c2)N(C)CCO3)cc1 inactive [at 46.1 µM], Cn1c(=O)c2sccc2n2c(CCCC(=O)NCc3ccco3)nnc12 inactive [at 46.1 µM], O=C(CN(C(=O)c1csnn1)c1cccc(Cl)c1)NCCc1ccccc1 inactive [at 46.1 µM]
